Results are given in words; binding and its absence hold for the method and conditions named. Some results given as binding are weak or reduced against the parent protein; the word gives no strength.
Biological target: fetal liver kinase 1 (Flk-1)-AP (mouse) (UniProt P35918)
Test: blocking ELISA, Flk-1-AP on VEGF165-coated plate

Chains of the proteins cited; added tags and fusions are not shown. Lines headed by an entry give the natural chain unless they say otherwise; changes in a name come on top. A line that says so, or that is headed by a name, gives the form on record, which may keep a tag or linker. Residues count along the entry.
UniProt P35918, residues 20-762: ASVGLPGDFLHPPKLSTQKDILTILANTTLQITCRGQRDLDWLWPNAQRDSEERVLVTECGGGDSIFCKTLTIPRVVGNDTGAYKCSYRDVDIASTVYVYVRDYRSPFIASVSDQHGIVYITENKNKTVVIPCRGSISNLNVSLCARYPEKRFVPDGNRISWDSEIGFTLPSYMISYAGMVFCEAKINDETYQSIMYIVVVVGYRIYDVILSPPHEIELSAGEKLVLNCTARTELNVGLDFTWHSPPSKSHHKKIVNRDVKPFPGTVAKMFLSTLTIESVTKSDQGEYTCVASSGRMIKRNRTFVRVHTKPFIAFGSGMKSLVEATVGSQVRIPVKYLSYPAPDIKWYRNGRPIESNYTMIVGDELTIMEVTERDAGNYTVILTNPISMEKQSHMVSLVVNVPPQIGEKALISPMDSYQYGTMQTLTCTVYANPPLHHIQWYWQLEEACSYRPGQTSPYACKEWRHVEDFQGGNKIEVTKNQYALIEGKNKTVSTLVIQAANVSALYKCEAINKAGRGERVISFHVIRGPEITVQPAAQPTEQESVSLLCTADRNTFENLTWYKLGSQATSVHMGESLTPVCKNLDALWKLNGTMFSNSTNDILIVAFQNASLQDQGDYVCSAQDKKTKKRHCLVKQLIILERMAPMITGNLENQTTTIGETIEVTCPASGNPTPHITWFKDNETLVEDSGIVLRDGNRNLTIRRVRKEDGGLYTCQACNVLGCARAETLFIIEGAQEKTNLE
Vascular endothelial growth factor (VEGF165) (P15692, form named): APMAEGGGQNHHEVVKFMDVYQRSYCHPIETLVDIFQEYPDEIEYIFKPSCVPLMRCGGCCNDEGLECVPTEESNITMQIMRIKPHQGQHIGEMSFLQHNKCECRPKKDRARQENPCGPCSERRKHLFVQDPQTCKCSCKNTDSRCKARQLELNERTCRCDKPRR

Substance: Vascular endothelial growth factor (VEGF165) (from UniProt P15692 27-191) (ligand)
- binding: binds

Source: patent publication US20020103345A1
